Primary screen of a compound library

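Whole-cell assay for inhibitors of Mycobacterium tuberculosis growth, labelled Cornell in the record; the read-out is not stated. The concentration is filed as 10 mM, unlikely as a test dose, so the dose is not known. The record gives no direction; compounds strong in two other growth screens of this library score well above the rest, so higher reads as stronger inhibition. About 53,000 compounds were tested under these conditions; 1.7% (about 900) showed 50% or more at least once.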

Results are given as percent effect. The record does not define 0% and 100%; most values in the screen are far below 50% and negative numbers occur (in some assays of this library far below -100). The compounds are a random part of those screened.

compound,Percent Effect
Cc1ccc(N(C)CC(O)COCc2ccccc2)c(C)c1 (stereo not shown),-22.79%
O=C(O)C(F)(F)F.c1csc(CN2CCc3ncnc(C4CCOC4)c3CC2)c1 (stereo not shown),17.56%
O=C(NCCc1ccccn1)C1(n2cnnn2)CCCCC1,8.704%
Cc1cc(NC(=O)C(C)N2CCN(c3nccs3)CC2)on1 (stereo not shown),-25.04%
CNC(=O)c1nc2c(s1)CCN(C(=O)c1ccc(OC)cc1)CC2,0.3206%
CCOCC1CN(c2ccc(C)nn2)Cc2cnn(CC)c21.O=C(O)C(F)(F)F.O=C(O)C(F)(F)F (stereo not shown),8.281%
CC(C)(C)c1n[nH]cc1CN1CCc2nc3ccsc3c(=O)n2CC1,3.057%
O=C(Cc1ccsc1)N1CCC(Cn2cc(CCO)nn2)CC1,12.53%
O=C(O)C(F)(F)F.[H][C@@]12C[C@H](C(=O)Nc3cccnc3)CN(C(=O)c3ccsc3)[C@]1([H])CCO2,8.202%
Cc1ccc(N2CCCc3sc(C(=O)NCc4ccc(C)o4)nc32)nn1,8.806%
Cc1cc(C(=O)CN(Cc2cccnc2)CC2CCCO2)c(C)[nH]1 (stereo not shown),19.67%
Cc1nn(C)c(Cl)c1C1CCCN1C(=O)c1cccn1C (stereo not shown),2.834%
[H][C@@]12C[C@H](C(=O)NCC(C)C)[C@@]([H])(CN(c3ncc(CC)cn3)C1)O2,18.71%
CCc1nccn1CC(=O)Nc1cccc(C(=O)N(C)C)c1,10.31%
CC(C)COC1CCN(S(=O)(=O)Cc2cccc(F)c2)CC1,-3.796%
CCCSc1ncccc1C(=O)NCc1ccc(N(C)C)cc1,-11.44%
[H][C@]12CNC[C@@]1(C(=O)NCCOc1ccccc1F)CN(C(C)=O)C2,-16.62%
CC(C)(C)c1c[nH]c([C@@H]2COCCN2C2CCC2)n1,20.11%
O=C(OCc1ccccc1)c1cccc(NC(=O)C2COCCO2)c1 (stereo not shown),-2.465%
CN(C)C(=O)c1cn2cc(-c3cccc(Cl)c3)n(CC3CC3)c(=O)c2n1,35.82%
[H][C@]1([C@H](O)c2ccc(NC(C)=O)cc2)COCC(=O)N1CC(C)C,-2.804%
O=C(N[C@@H]1CCNC[C@H]1O)c1ccc(F)c(F)c1,-2.894%
CCN1CCC(N2CCC(c3nc(C)cc(C)n3)C2)CC1 (stereo not shown),20.61%
CC(CC#N)N(C)Cc1ccccc1Cl (stereo not shown),3.331%
Cl.c1cnc2c(c1)cc([C@@H]1CCCO1)n2CCN1CCOCC1,16.94%
O=C1CC2(CCN(Cc3ccsc3)C2)CN1c1ccc2c(c1)OCO2 (stereo not shown),-51%
CNC(=O)CCCNCc1c(C(C)C)nn(C)c1N(C)C,26.07%
O=C(O)C(F)(F)F.[H][C@@]12CCN(C3CCCCC3)[C@]1([H])CC[C@H](C(=O)N1CCOCC1)O2,0.4009%
O=C(O)C(F)(F)F.O=C(O)C(F)(F)F.O=C(O)C(F)(F)F.[H][C@]12CCN(c3ncc(F)cn3)C[C@@]1([H])OCCN(Cc1ccncc1)C2,22.25%
O=C(c1cc[nH]n1)N1CCCC1c1cnccn1 (stereo not shown),0.5275%
CC(C)c1cc(C2CCCN2C(=O)CN2C(=O)OC(C)(C)C2=O)no1 (stereo not shown),16.26%
CCCC1c2cccn2CCN1S(=O)(=O)N1CCOCC1 (stereo not shown),24.25%
Cc1ncsc1C(=O)NC1CCN(CC(N)=O)CC1,-12.77%
CCC1CN(C(=O)c2ccc(Cl)cc2O)CCN1C(C)C (stereo not shown),-1.782%
C=Cn1ncc(CN2CCC(c3ncc(Cl)cc3S(C)(=O)=O)CC2)c1C,0.06604%
CCc1nc(C)cn1C(=O)Nc1ccc(C)cc1,-11.62%
COc1cccnc1NC(=O)COc1ccc(F)cc1F,-9.137%
Cc1nc(NCc2nncn2C2CC2)c2c(CC(C)C)csc2n1,-10.36%
Cc1cc(NC(=O)CN(CC(C)O)c2ccccc2)on1 (stereo not shown),-37.2%
COc1ccc(C2=NOC(CO)C2)cc1 (stereo not shown),-6.524%
CC(C)C(C)NC(=O)CNc1cc2c(cc1Cl)NC(=O)CO2 (stereo not shown),-23.67%
CN(C)CCn1cc(NC(=O)NC(C)(C)c2nccs2)cn1,-3.507%
[H][C@]12CC[C@]([H])(CN(C(=O)c3ccccn3)C1)N(C(=O)CCC(F)(F)F)C2,15.96%
Cn1cc(-c2cnc(N3CCOCC3)nc2)cc1C(=O)N1CCCC1,14.17%
O=C(NCc1cc[nH]n1)N1CCCC(N2CCCC2)C1 (stereo not shown),-4.904%
NS(=O)(=O)CCN(CCc1cccc(F)c1)C1CCCC1,-7.375%
O=C(Cc1ccon1)NC1CCCN(c2ccccc2F)C1=O (stereo not shown),-6.574%
CC(C)CN1CCCn2nc(CNC(=O)CN3CCOC3=O)cc2C1,-7.095%
[H][C@]12CCN(C(=O)C3CCCO3)CC[C@@]1([H])S(=O)(=O)N(CC(C)C)C2 (stereo partly shown),29.86%
CN(C)Cc1cnc(C2CCN(C(=O)c3ccccc3F)C2)[nH]1.Cl (stereo not shown),47.31%
c1cn(-c2nccnc2C2CCCN(C3CCOCC3)C2)cn1 (stereo not shown),-2.104%
Cc1cc(C(=O)NCC(=O)NC(c2ncccc2C)C(C)C)c(C)o1 (stereo not shown),15.81%
Cn1ccc2cc(C(=O)NC3CCOC(C)(C)C3)ccc21 (stereo not shown),38.28%
CCOC(=O)CNC(=O)N1CCC(OC)c2ccccc2N(C)C(=O)C1 (stereo not shown),7.652%
CCC(C)N1C(=O)c2ccc(C(=O)NCCc3c[nH]cn3)cc2C1=O (stereo not shown),-1.699%
Cc1cc(C(F)(F)F)nc(N2CCN3CCCC3C2)n1 (stereo not shown),-50.74%
[H][C@@]12CCN(S(=O)(=O)c3ccccc3F)C[C@]1(C(=O)NC)CCO2,22.02%
Cc1noc(C)c1-c1cc(CCC2CN(CCC(N)=O)CCO2)ncn1 (stereo not shown),6.265%
CCOCC1CN(S(C)(=O)=O)Cc2cnn(C)c21 (stereo not shown),15.81%
Cc1cc(O)c(OCC(=O)Nc2nccs2)cn1,22.94%
Nc1nc(N)c2c(n1)OC1(COCCN(Cc3nccs3)C1)C2 (stereo not shown),-5.547%
Cc1c(-c2cc(C(F)F)nc3sc(C(N)=O)c(N)c23)cnn1C,11.82%
Cc1cncc(C(=O)N2CCNCC2C(=O)NCc2ccncc2)c1 (stereo not shown),1.023%
Oc1cc(CN2CCC(O)(Cn3ccnc3)CC2)nc2c(Cl)cccc12,11.48%
CN(C)C(=O)CS(=O)(=O)Cc1cc(Cl)c2c(c1)OCCCO2,10.45%
Cc1occc1C(=O)N1CCCC2(CCN(CCN3CCCC3)C2=O)C1.O=C(O)C(F)(F)F (stereo not shown),-44.61%
Cn1cccc1C(=O)NC(C)(C(N)=O)c1cccc(C(F)(F)F)c1 (stereo not shown),15.29%
CNc1cc(C2CN(C(=O)c3ccn(C)n3)CCO2)nc(C)n1 (stereo not shown),-15.77%
Cc1nnc(N2CC[C@@H](OCC3CC3)[C@@H](Cc3ccccc3)C2)s1.O=C(O)C(F)(F)F,81.09%
Nc1nccnc1C1CN(C(=O)COc2cccnc2)CCO1 (stereo not shown),6.071%
Cc1cc2ccccc2n1CC(=O)NCC(=O)N1CCOCC1,16.06%
CC(CN1CCOCC1)NC(=O)NCc1ccc(Cl)s1 (stereo not shown),-10.69%
Cc1cnc(C)c(N2CCCC(CO)(Cc3cccc(Cl)c3)C2)n1 (stereo not shown),-24.39%
COCCNC(=O)CCc1c(C)nn(-c2nc(C)c(C)c(=O)[nH]2)c1C,25.57%
COc1ccc(C[C@H]2CN(C(=O)C3CC3)CC[C@H]2OC)cc1,-37.6%
CN(C)CC(=O)N1CCc2sc(C(=O)N3CCN(C)CC3)cc21,-4.581%
Cc1cc(C)n(CC(=O)NC2CCCCNC2=O)n1 (stereo not shown),-8.167%
COCC(=O)N[C@H]1C[C@@H](C(=O)NCCc2cccc(Cl)c2)N(C)C1,11.51%
Cc1ccc(NC2COC3(CCN(Cc4ccn(C)n4)CC3)C2)nn1.O=C(O)C(F)(F)F (stereo not shown),28.23%
O=C(O)C(F)(F)F.[H][C@@]12CCCO[C@]1([H])[C@H](Oc1ccccn1)CN2S(C)(=O)=O,10.6%

The first 9 entries again:

| compound | Percent Effect |
|---|---|
| `Cc1ccc(N(C)CC(O)COCc2ccccc2)c(C)c1` (stereo not shown) | -22.79% |
| `O=C(O)C(F)(F)F.c1csc(CN2CCc3ncnc(C4CCOC4)c3CC2)c1` (stereo not shown) | 17.56% |
| `O=C(NCCc1ccccn1)C1(n2cnnn2)CCCCC1` | 8.704% |
| `Cc1cc(NC(=O)C(C)N2CCN(c3nccs3)CC2)on1` (stereo not shown) | -25.04% |
| `CNC(=O)c1nc2c(s1)CCN(C(=O)c1ccc(OC)cc1)CC2` | 0.3206% |
| `CCOCC1CN(c2ccc(C)nn2)Cc2cnn(CC)c21.O=C(O)C(F)(F)F.O=C(O)C(F)(F)F` (stereo not shown) | 8.281% |
| `CC(C)(C)c1n[nH]cc1CN1CCc2nc3ccsc3c(=O)n2CC1` | 3.057% |
| `O=C(Cc1ccsc1)N1CCC(Cn2cc(CCO)nn2)CC1` | 12.53% |
| `O=C(O)C(F)(F)F.[H][C@@]12C[C@H](C(=O)Nc3cccnc3)CN(C(=O)c3ccsc3)[C@]1([H])CCO2` | 8.202% |

Measurements from “University of Dundee, Small-Polar-MMV Screening Library” (2021), ChEMBL document CHEMBL3988442.